Results are given in words; binding and its absence hold for the method and conditions named. In cells and extracts the contact can be indirect. Some binding calls cover weakened binding; strength is not graded here.
Legend:
[1] = biological target: BamD, His6-tagged, purified (Escherichia coli) (UniProt P0AC02); assay: pull-down; 10 μM purified BamA or BamD in Buffer A (150 mM NaCl, 20 mM NaPO4) pre-incubated 1 h at 4 °C with 0.35 mM peptide or DMSO, then 35S-OmpC 30 min, Ni-NTA; the pair OmpC with BamA or BamD; only the target purified
[2] = biological target: BamB, His6-tagged, purified (Escherichia coli) (UniProt P77774); assay: pull-down; purified His-tagged BamA, BamD or BamB incubated with 35S-OmpC for 60 min at 4 °C, then Ni-NTA 30 min; wash Buffer A with 20 mM imidazole, elution 400 mM imidazole; SDS-PAGE and radio-imaging; only the target purified
[3] = biological target: BamD, His6-tagged, purified (Escherichia coli) (UniProt P0AC02); assay: as above

- binding [1]: binds
- binding [2]: no binding
- binding [3]: binds
B1: 35S-labeled OmpC, in vitro translated (protein, UniProt P06996 1-367)
chain: MKVKVLSLLVPALLVAGAANAAEVYNKDGNKLDLYGKVDGLHYFSDNKDVDGDQTYMRLGFKGETQVTDQLTGYGQWEYQIQGNSAENENNSWTRVAFAGLKFQDVGSFDYGRNYGVVYDVTSWTDVLPEFGGDTYGSDNFMQQRGNGFATYRNTDFFGLVDGLNFAVQYQGKNGNPSGEGFTSGVTNNGRDALRQNGDGVGGSITYDYEGFGIGGAISSSKRTDAQNTAAYIGNGDRAETYTGGLKYDANNIYLAAQYTQTYNATRVGSLGWANKAQNFEAVAQYQFDFGLRPSLAYLQSKGKNLGRGYDDEDILKYVDVGATYYFNKNMSTYVDYKINLLDDNQFTRDAGINTDNIVALGLVYQF
modifications: 35S-methionine label

Source: article PMC10945584
